Experimental findings from PMC5356539 are described below.

Chains of the proteins cited; added tags and fusions are not shown. Residues count along the entry.
UniProt O14786, 22-640: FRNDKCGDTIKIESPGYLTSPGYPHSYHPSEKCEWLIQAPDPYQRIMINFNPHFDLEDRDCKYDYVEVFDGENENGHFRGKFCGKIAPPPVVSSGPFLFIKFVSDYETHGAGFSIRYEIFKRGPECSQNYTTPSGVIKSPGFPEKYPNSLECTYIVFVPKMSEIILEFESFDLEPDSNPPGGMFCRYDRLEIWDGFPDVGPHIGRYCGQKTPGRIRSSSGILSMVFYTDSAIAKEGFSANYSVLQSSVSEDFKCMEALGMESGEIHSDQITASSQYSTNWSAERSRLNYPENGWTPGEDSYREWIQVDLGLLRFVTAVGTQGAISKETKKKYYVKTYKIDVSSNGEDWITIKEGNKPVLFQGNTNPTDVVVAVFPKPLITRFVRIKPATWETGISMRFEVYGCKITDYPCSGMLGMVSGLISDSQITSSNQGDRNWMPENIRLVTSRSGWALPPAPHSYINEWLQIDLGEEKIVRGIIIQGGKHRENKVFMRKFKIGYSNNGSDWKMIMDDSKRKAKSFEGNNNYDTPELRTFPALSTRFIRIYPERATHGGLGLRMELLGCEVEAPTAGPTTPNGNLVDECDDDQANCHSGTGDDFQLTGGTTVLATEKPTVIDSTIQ

The series has as its target sNRP1 (human) (UniProt O14786). The series is described as follows: plate binding assay / competition. To be noted: competitor RNA stated to bind NRP1, NRP1 form not stated; 3'-biotinylated cytidine (bis)phosphate ligated when labelled; recombinant protein; residues 22-640; label: 3' biotin or unlabeled.

The exact form of at least one protein or probe is not confirmed. At least one verdict was read from the data and is not stated in words by the source.

Regarding “CCUGGUUUUUAAGGAGUGUCGCCAGAGUGCCGCGAAUGAAAAA [control RNA from Pierce kit (competitor RNA)]”, the binding result is recorded as “binds”.
